A short description of this assay: qHTS Assay for Lipid Storage Modulators in Drosophila S3 Cells.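 For cell number change: cells counted by Cell Tracker Red CMTPX staining in the red channel.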 As to conditions: BODIPY lipid droplet fluorescence, 18-24 h; for cell number change: measured here: cell count max response, cells fed with added oleic acid. An outline of the steps:
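Drosophila S3 cells loaded with oleic acid (400 uM, as added) and compounds at several concentrations; lipid droplets imaged by 488-nm laser-scanning cytometry, 500–530 nm intensity and object ratio to cell channel. Percent activity normalized to 20 uM Triacsin C.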
Background: In qHTS, concentration-response curves come from the screen itself.

[1] abbreviates: measured here: cell number channel AC50, cells fed with added oleic acid.
[2] abbreviates: measured here: lipid fluorescence (Fed channel) AC50, cells fed with added oleic acid.

The text below walks through data of PubChem BioAssay AID2685 (National Center for Advancing Translational Sciences (NCATS), 2010).

Several values for one entry are separate records, joined by “and”; a condition that tells them apart may be missing. Identical values can stand only once. This is one part of the list. Further columns of the screen follow, without active or inactive calls. Most of these compounds were active or inconclusive in the main read-out, so they are no random draw. The note in brackets gives the kind of curve behind each potency; many fits are weak.

On to `COc1ccc(C(=O)NCC(=O)OCn2nnc3ccccc3c2=O)cc1OC`, for which the cell number change came out at 3.28%.
With `CC(C)(C)c1cc(/C=N/O)cc(C(C)(C)C)c1O`, the cell number change is -37.2%. Besides, the AC50 under setting [1] was 29.1 µM [falling, single point]. The AC50 under setting [2] is 25.9 µM [falling, single point].
Regarding `COc1cc(C(=O)OC2CCN(C)CC2)cc(OC)c1OC`, the cell number change was -44.5%. For the same compound, the half-maximal activity concentration (AC50) under setting [1] is 29.1 µM [falling, single point].
In the case of `N=c1c2c(n(Cc3ccc(Cl)cc3)c3c1CCC3)CCC2`, the cell number change was -49.4%. Further, the AC50 under setting [1] is 20.6 µM [falling, single point]. Further, under setting [2], the AC50 is 0.731 µM [rising, full curve, poor fit].
Turning to `CCCn1c(SCC(=O)Nc2nnc(CC)s2)nc2c1c(=O)n(C)c(=O)n2C`, the cell number change is -8.26%.
`COc1cc(OC)cc(-c2cc3nc(C)c(CCC(=O)NC(C)CCc4ccco4)c(C)n3n2)c1` (stereo not drawn): the AC50 under setting [2] was 6.51 µM [rising, single point].
For `Cc1ccc(N2C(=O)CC(Sc3ncccn3)C2=O)cc1C` (stereo not drawn), the cell number change came to 39.6%. For the same compound, under setting [1], the concentration at half-maximal activity (AC50) is 0.00461 µM [rising, full curve, poor fit]. Also, the concentration at half-maximal activity (AC50) under setting [2] is 29.1 µM [rising, single point].
Take `COc1ccc(NC(=O)C2CCCN(S(=O)(=O)c3ccc4c(c3)CC(C)N4C(C)=O)C2)cc1` (stereo not drawn): the cell number change was -7.91%. For the same compound, the AC50 under setting [2] is 2.91 µM [rising, single point].
Take `Cc1ccc(NC(=O)c2ccc(Cn3cc([N+](=O)[O-])cn3)cc2)c(C)c1`: the cell number change is 0.235%.
Regarding `COc1ccc(NC(=O)c2cc(S(=O)(=O)N3CCCC3)c[nH]2)cc1`, the cell number change is -4.19%. In addition, under setting [2], the AC50 was 0.092 µM [rising, full curve, poor fit].
With `COc1ccc(C(=O)COC(=O)COc2cccc3c2OC(C)(C)C3)c(OC)c1`, the half-maximal activity concentration (AC50) under setting [1] is 5.17 µM [falling, single point].
`CC(C)(C)c1ccc(C(=O)NCC(=O)OCC(=O)N2CCN(S(=O)(=O)c3ccc(Cl)cc3)CC2)cc1`: the cell number change was -34.9%. In addition, the half-maximal activity concentration (AC50) under setting [1] is 8.2 µM [falling, partial curve, poor fit]. The AC50 under setting [2] is 5.8 µM [falling, partial curve, poor fit].
With `COc1ccc(-c2csc(N(CCCN(C)C)C(=O)c3ccc(C(C)(C)C)cc3)n2)cc1`, the cell number change was -57.7%. The AC50 under setting [2] is 29.1 µM [falling, single point].
Regarding `NC(=O)c1c(NC(=O)CSc2nnc(-c3ccccc3)n2CC2CCCO2)sc2c1CCC2` (stereo not drawn), the AC50 is, setting by setting: under setting [1], 3.26 µM [rising, partial curve]; under setting [2], 0.291 µM [rising, partial curve, poor fit].
With `Cc1ccc(C(=O)N2CCCC(CCC(=O)NCc3ccc(F)c(F)c3)C2)cn1` (stereo not drawn), the cell number change is 13.8%. For the same compound, the half-maximal activity concentration (AC50) under setting [2] was 25.9 µM [falling, single point].
Take `CCCCNc1nnc(Cc2ccc(Cl)cc2)c(=O)[nH]1`: the cell number change came out at 20.4%. Further, the AC50 under setting [1] is 0.00517 µM [rising, full curve, poor fit].
As to `CN1c2ccccc2N(C)C1c1ccc2c(c1)OCO2`, the AC50 under setting [2] was 0.651 µM [falling, single point].
Consider `O=C(CSc1ccc2ccccc2n1)NC1CC1`, for which the cell number change is -6.89%. In addition, under setting [2], the AC50 is 29.1 µM [rising, single point].
In the case of `Cc1cc(C(=O)OCC(=O)NCc2ccccc2)c(C)o1`, the AC50 under setting [2] is 23.1 µM [rising, partial curve].
Regarding `CCOc1ccc2nc(NC(=O)CN3CCC(n4nnc5cc(F)ccc54)CC3)sc2c1`, the cell number change amounted to 53.7%. Further, the AC50 under setting [1] was 0.366 µM [rising, full curve, poor fit]. In addition, the AC50 under setting [2] is 0.366 µM [rising, full curve].
Take `Cc1cc(Cl)c(C(=O)Nc2cccc(C(F)(F)F)c2)c(C)n1`: the cell number change was -15%. For the same compound, the AC50 under setting [2] is 29.1 µM [falling, single point].
Take `Cc1ccccc1OCC(=O)OCC(=O)NCc1cccs1`: the cell number change is -0.23%. Moreover, the AC50 under setting [2] is 29.1 µM [falling, single point].
For the compound `O=C(Nc1ccc(S(=O)(=O)Nc2nccs2)cc1)c1cc(-c2ccccc2)nc2ccccc12`, the cell number change came out at 1.3%. Moreover, the half-maximal activity concentration (AC50) under setting [2] is 0.146 µM [rising, full curve, poor fit].
Take `COc1ccc(OCc2cc(C(=O)N(C)CCC3CCOCC3)no2)c(Cl)c1`: the cell number change is -21%. Besides, under setting [1], the AC50 is 0.082 µM [falling, full curve, poor fit].
`CCNS(=O)(=O)c1cc(S(C)(=O)=O)ccc1Cl`: the cell number change is -11.2%. Moreover, the AC50 under setting [2] was 11.6 µM [falling, partial curve].
With `CCCC1C2CN(C(C)=O)CC=C2C(C#N)=C(N)C1(C#N)C#N` (stereo not drawn), the cell number change was -4.45%. Further, the AC50 under setting [2] is 0.58 µM [rising, full curve, poor fit].
Turning to `Cc1c(C(=O)NCc2ccccn2)oc2c(Cl)cccc12`, the cell number change was found to be 27.1%. In addition, the AC50 under setting [2] was 6.51 µM [rising, partial curve].
Turning to `CC(Sc1nnnn1-c1ccc(O)cc1)C(=O)NC1CCCCC1C` (stereo not drawn), the cell number change was 10.2%. Further, under setting [2], the half-maximal activity concentration (AC50) was 11.2 µM [rising, partial curve, poor fit].
For the compound `CCN1C(=O)CC(c2ccccc2)CC1=O`, the cell number change stood at 1.98%. In addition, under setting [2], the AC50 is 3.66 µM [rising, single point].
For `CC(C)(C)NC(=O)c1ccc2c3c(cccc13)CC2`, the cell number change was 5.35%. Besides, the AC50 under setting [2] was 6.51 µM [falling, single point].
On to `Cc1ccc(OCc2cc(C(=O)N(C)CCc3nc4ccccc4[nH]3)no2)cc1C`, for which the cell number change is -14.1%.
Consider `COc1ccc(SC[C@H](Cc2ccccc2)N2CC[C@@H](C(C)(C)C)CCC2=O)cc1`, for which the cell number change was -0.245%. Besides, the AC50 under setting [2] was 3.66 µM [rising, single point].
As for `Cc1oc2cc3oc(=O)cc(C)c3cc2c1C`, the cell number change was -2.78%. Further, the AC50 under setting [2] is 25.9 µM [falling, partial curve].
Consider `NC(=S)N/N=C/c1ccccc1OCCSc1ccc(Cl)cc1`, for which the cell number change was -16.1%. In addition, the AC50 under setting [2] was 29.1 µM [falling, single point].
In the case of `COc1ccc(N(CC(=O)NCCC2=CCCCC2)S(=O)(=O)c2ccccc2)cc1`, the cell number change was -8.58%. Also, under setting [2], the AC50 is 20.6 µM [falling, single point].
Consider `COc1ccc(C(=O)COC(=O)CCN2C(=O)C3CC=CCC3C2=O)c(OC)c1` (stereo not drawn), for which the cell number change is 100%. The AC50 under setting [1] was 1.64 µM [falling, partial curve].
With `O=c1[nH]cnc2scc(C3COc4ccccc4O3)c12` (stereo not drawn), the cell number change is -44.4%. For the same compound, the AC50 under setting [1] was 16.4 µM [falling, single point]. Moreover, the AC50 under setting [2] was 29.1 µM [falling, single point].
Consider `COc1cccc(OC)c1/C(O)=C(\C#N)c1nc2ccccc2[nH]1`, for which the cell number change is -9.9%. In addition, under setting [2], the AC50 is 2.91 µM [falling, full curve].
In the case of `Cc1nn(-c2ccccc2)c(C)c1C(=O)OCC(=O)N1CC(=O)Nc2ccccc21`, the cell number change was found to be 17.2%. Also, under setting [2], the AC50 was 7.31 µM [rising, partial curve].
As to `COc1ccc(CN2CCNC(=O)C2CC(=O)N(C)Cc2ccon2)c(F)c1` (stereo not drawn), the cell number change amounted to 25.5%. Also, under setting [2], the AC50 was 3.26 µM [rising, single point].
With `C[C@H](N)c1nnc(SCC(=O)N(C)C)o1`, the cell number change is -87.1%. For the same compound, under setting [1], the AC50 is 4.11 µM [falling, full curve]. Besides, the AC50 under setting [2] was 4.11 µM [falling, full curve].
Take `CCC1(C)CC(=O)N(c2ccc(C(=O)O)c(O)c2)C1=O` (stereo not drawn): the cell number change is -43.4%. The AC50 under setting [1] was 0.146 µM [falling, full curve]. Further, under setting [2], the AC50 is 3.66 µM [falling, full curve].
With `COCCN(C(=O)COC(=O)CCc1ccccc1OC)c1c(N)n(Cc2ccccc2)c(=O)[nH]c1=O`, the cell number change is 45.9%. In addition, the concentration at half-maximal activity (AC50) under setting [1] is 29.1 µM [rising, single point]. Besides, the AC50 under setting [2] was 2.91 µM [falling, partial curve].
On to `O=C1c2ccccc2C(=O)c2c(Nc3ccc(CCO)cc3)ccc(O)c21`, for which the cell number change was -58.6%. Also, the concentration at half-maximal activity (AC50) under setting [1] is 16.4 µM [falling, partial curve]. The AC50 under setting [2] was 3.26 µM [rising, partial curve].
Take `CCCC(C)C(=O)OCC(=O)Nc1ccc(Br)cc1` (stereo not drawn): the cell number change amounted to 17.8%.
On to `Nc1nc(SCC(=O)N2CCN(c3ccc(F)cc3)CC2)n[nH]1`, for which the cell number change was -26.4%. In addition, the AC50 under setting [2] was 18.4 µM [falling, single point].
As for `CC1=Nc2ccc(C)cc2/C1=C/c1c(N)n2oc(C)cc2nc1=O`, the cell number change was determined as 41.6%. The concentration at half-maximal activity (AC50) under setting [1] is 1.3 µM [rising, partial curve] and 20.6 µM [rising, single point].
For `CC(=O)c1cccc(NC(=O)CSCc2ccccc2)c1`, the cell number change is -14.7%. Moreover, the AC50 under setting [2] was 18.4 µM [falling, single point].
In the case of `CC(CCc1ccccc1)NC(=O)COC(=O)C1=COCCO1` (stereo not drawn), the cell number change came out at 7.96%. Also, the AC50 under setting [2] was 0.13 µM [falling, full curve, poor fit].
Consider `O=C(O)CCC(=O)NNC(=O)CCC(=O)NCc1ccccc1`, for which the cell number change was found to be 1.33%. Besides, the AC50 under setting [2] was 0.092 µM [falling, full curve, poor fit].
Turning to `O=C(Nc1ccc(N2CCOCC2)cc1)c1cc2ccccc2o1`, the AC50 under setting [1] is 1.3 µM [rising, partial curve].
Take `COc1cc(N)c(Cl)cc1Cl`: the cell number change was -4.21%. For the same compound, the AC50 under setting [1] was 0.164 µM [falling, full curve, poor fit].
In the case of `O=S(=O)(Nc1ccc(Cc2ccncc2)cc1)c1cccs1`, the cell number change amounted to 2.23%.
As to `C=C(C)CN(CC)C(=O)CC1C(=O)NCCN1CC(C)(C)C` (stereo not drawn), the cell number change is -26.1%. Also, the AC50 under setting [2] was 16.4 µM [falling, single point].
In the case of `COc1cc(NC(=S)NCc2cccs2)cc(OC)c1`, the cell number change came out at 1.58%. Moreover, the AC50 under setting [2] is 0.116 µM [rising, full curve].
Take `CCOC(=O)c1ccc(NC(=O)c2nn(CC)cc2Br)cc1`: the cell number change is -17.3%.
As to `N#CC(c1ccc(F)cc1)c1ccc(C(=O)c2ccc(F)cc2)cc1` (stereo not drawn), the cell number change is 65.3%. Further, the half-maximal activity concentration (AC50) under setting [1] was 13 µM [rising, partial curve, poor fit]. Under setting [2], the AC50 was 18.4 µM [falling, single point].
For the compound `C=C(CCC(=O)c1ccccc1)C(=O)c1ccccc1`, the cell number change was -51.8%. Further, the AC50 under setting [1] is 16.4 µM [falling, single point]. Moreover, the AC50 under setting [2] is 16.4 µM [falling, partial curve].
As for `Cc1ccc(N(CC(=O)NC2CCCCCC2)S(=O)(=O)c2c(C)nn(C)c2C)cc1`, the cell number change was found to be 21.7%. Further, the AC50 under setting [2] was 5.8 µM [rising, full curve].

By AC50 is commonly meant the concentration giving half of the maximal activity seen. Read a low AC50 as activity at low concentration.
